According to US8410045B2, “Camptothecin-peptide conjugates and pharmaceutical compositions containing the same” (Drais Pharmaceuticals, Inc., priority 2006, dated 2013):
Structures can show the parent of a compound that is named as a salt.

Legend:
NCI-H460 lung carcinoma = experiment: Antitumor efficacy in NCI-H460 lung carcinoma model in nude mice; settings: for Day when minimal T/C is reached: Table 7, i.v. Q2D3 × 3 W
[1] = system: MDA-MB-231 mammary carcinoma; experiment: Antitumor efficacy in MDA-MB-231 mammary carcinoma model in nude mice; assay type: in vivo; settings: Table 7, i.v. Q2D3 × 3 W
[2] = system: HT-29 colorectal carcinoma; experiment: Antitumor efficacy in HT-29 colorectal carcinoma model in nude mice; assay type: in vivo; settings: Table 7
[3] = system: LS 174T human colorectal carcinoma tumor; experiment: Antitumor efficacy in human LS 174T xenograft colon tumor model implanted in nude rats; assay type: in vivo; settings: Table 7
Method: The LS 174T study was performed using female nude rats (8 weeks old) purchased from Harlan breeding center (Gannat, France). LS 174T tumors were established by a subcutaneously implantation of cell (ATCC Number: CCl-188) suspensions in the right flank of the animals. The first injection of drugs was performed when the tumors reached a size of about 1000 mm^3. The tumor volume was calculated using the following formula: [length×width^2]/2.

Row | SMILES | Day when minimal T/C is reached (NCI-H460 lung carcinoma; 12.5 μmol/kg) | Day when minimal T/C is reached (NCI-H460 lung carcinoma; 25 μmol/kg) | Day when minimal T/C is reached ([1]; 12.5 μmol/kg) | Day when minimal T/C is reached ([1]; 25 μmol/kg) | Day when minimal T/C is reached ([2]; i.v. Q4D × 3, 12.5 μmol/kg) | Day when minimal T/C is reached ([2]; i.v. Q4D × 3, 25 μmol/kg) | Day when minimal T/C is reached ([3]; i.v. Q4D × 5, 10 μmol/kg) | Day when minimal T/C is reached ([3]; i.v. Q4D × 5, 20 μmol/kg) | In vivo efficacy Optimal T/C (NCI-H460 lung carcinoma; Table 9, 25 μmol/kg)
1 | CCc1c2c(nc3ccc(OC(=O)[C@H]4CC[C@H](CNC(=O)C5CCC(CN6C(=O)CC(SC[C@H](N)C(=O)N[C@H](C(=O)N[C@@H](CCCCN)C(=O)N[C@@H](CCCNC(=N)N)C(=O)NCC(=O)N[C@@H](CC(C)C)C(=O)N[C@@H](CCCCN)C(=O)N[C@@H](CC(C)C)C(=O)N[C@@H](CCCNC(=N)N)C(=O)N[C@@H](Cc7c[nH]cn7)C(=O)N[C@H](C(=O)N[C@@H](CCCNC(=N)N)C(=O)N7CCC[C@H]7C(=O)N[C@@H](CCCNC(=N)N)C(=O)N[C@H](C(=O)N[C@H](C(=O)N[C@@H](CCCNC(=N)N)C(=O)N[C@@H](CCSC)C(=O)N[C@@H](CC(=O)O)C(=O)N[C@H](C(=O)O)C(C)C)[C@@H](C)O)C(C)C)C(C)C)C(C)C)C6=O)CC5)CC4)cc13)-c1cc3c(c(=O)n1C2)COC(=O)[C@]3(O)CC (single isomer, unassigned) [DPV1047-BCH-SN38] | 24 days | 24 days | 58 days | 51 days | 38 days | 31 days | 35 days | 35 days | –
2 | CCc1c2c(nc3ccc(OC(=O)[C@H]4CC[C@H](CNC(=O)C5CCC(CN6C(=O)CC(SC[C@H](N)C(=O)N[C@H](C(=O)N[C@@H](CCCCN)C(=O)N[C@@H](CCCNC(=N)N)C(=O)NCC(=O)N[C@@H](CC(C)C)C(=O)N[C@@H](CCCCN)C(=O)N[C@@H](CC(C)C)C(=O)N[C@@H](CCCNC(=N)N)C(=O)N[C@@H](Cc7c[nH]cn7)C(=O)N[C@H](C(=O)N[C@@H](CCCNC(=N)N)C(=O)N7CCC[C@H]7C(=O)N[C@@H](CCCNC(=N)N)C(=O)N[C@H](C(=O)N[C@H](C(=O)N[C@@H](CCCNC(=N)N)C(=O)N[C@@H](CCSC)C(=O)N[C@@H](CC(=O)O)C(=O)N[C@H](C(=O)O)C(C)C)[C@@H](C)O)C(C)C)C(C)C)C(C)C)C6=O)CC5)CC4)cc13)-c1cc3c(c(=O)n1C2)COC(=O)[C@]3(O)CC (single isomer, unassigned) [DPV1047-BCH-SN38•HCl] | – | – | – | – | – | – | – | – | 24 days
